{"source": "the supplement of paper PMC12067093", "about": "“Discovery and optimisation of a covalent ligand for TRIM25 and its application to targeted protein ubiquitination” (Chemical Science, 2025)", "target": "T1, POLL_Q9UGP5_73_QIVQHGGQLCPAQGPGVTHIVVDEGMDYER (UniProt Q9UGP5)", "T1 sequence (whole entry)": "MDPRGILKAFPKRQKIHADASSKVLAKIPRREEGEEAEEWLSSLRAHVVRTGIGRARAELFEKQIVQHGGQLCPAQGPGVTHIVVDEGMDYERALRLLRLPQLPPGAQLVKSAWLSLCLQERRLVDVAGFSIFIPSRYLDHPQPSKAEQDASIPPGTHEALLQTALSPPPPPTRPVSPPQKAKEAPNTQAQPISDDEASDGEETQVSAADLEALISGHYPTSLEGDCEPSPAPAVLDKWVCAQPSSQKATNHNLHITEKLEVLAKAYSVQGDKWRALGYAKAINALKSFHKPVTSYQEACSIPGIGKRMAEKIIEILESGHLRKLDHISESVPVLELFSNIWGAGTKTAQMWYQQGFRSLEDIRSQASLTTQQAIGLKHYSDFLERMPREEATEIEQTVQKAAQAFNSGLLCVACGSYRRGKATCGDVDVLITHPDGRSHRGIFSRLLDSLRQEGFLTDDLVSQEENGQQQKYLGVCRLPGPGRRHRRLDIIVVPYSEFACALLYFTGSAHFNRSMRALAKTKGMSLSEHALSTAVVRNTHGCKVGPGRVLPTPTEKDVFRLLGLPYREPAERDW", "assay": "probe-labelled cysteine peptide fold change vs DMSO (competition) (log2 fold change); higher = less target engagement (more negative = stronger competition)", "conditions": "THP-1, incubation time: 4 h", "note": "This is one part of the list.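 Also: competitive chemoproteomic profiling in live THP-1 cells with an iodoacetamide desthiobiotin (IA-DTB) probe, comparing probe-labelled peptide intensities in compound-treated cells against DMSO-treated controls.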"}
{"smiles": "CC1Cc2ccccc2N1C(=O)C1CCCN(C(=O)CCl)C1", "note": "(mixture of isomers) [TRIM25 ligand 11 (diastereomer mixture)]", "values": [{"measurement": "probe-labelled cysteine peptide fold change", "setting": "10 µM", "result": -0.0542}, {"measurement": "probe-labelled cysteine peptide fold change", "setting": "50 µM", "result": 0.496}]}
